Measured values published in PMC5320536.
No constants are given. Whether binding was seen depends on the method and setting. Binding seen in cells or lysates may run through a third protein. Some entries that bind do so weakly or less than the wild type.

By UniProt entry, the sequences of proteins in these tests, tags left out.
UniProt P31749: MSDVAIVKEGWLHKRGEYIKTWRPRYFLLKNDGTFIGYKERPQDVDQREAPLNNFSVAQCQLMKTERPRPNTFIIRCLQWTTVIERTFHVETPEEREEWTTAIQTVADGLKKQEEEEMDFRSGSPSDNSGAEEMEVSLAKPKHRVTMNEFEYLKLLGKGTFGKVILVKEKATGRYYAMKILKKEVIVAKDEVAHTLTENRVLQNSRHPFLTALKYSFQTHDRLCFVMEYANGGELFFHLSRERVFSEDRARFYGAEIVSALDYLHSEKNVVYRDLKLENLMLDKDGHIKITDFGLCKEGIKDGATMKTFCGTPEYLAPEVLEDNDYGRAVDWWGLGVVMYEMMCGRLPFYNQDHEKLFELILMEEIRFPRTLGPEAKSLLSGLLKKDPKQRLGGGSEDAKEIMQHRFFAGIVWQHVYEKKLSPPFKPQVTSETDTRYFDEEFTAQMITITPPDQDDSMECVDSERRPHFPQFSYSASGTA
UniProt P31751: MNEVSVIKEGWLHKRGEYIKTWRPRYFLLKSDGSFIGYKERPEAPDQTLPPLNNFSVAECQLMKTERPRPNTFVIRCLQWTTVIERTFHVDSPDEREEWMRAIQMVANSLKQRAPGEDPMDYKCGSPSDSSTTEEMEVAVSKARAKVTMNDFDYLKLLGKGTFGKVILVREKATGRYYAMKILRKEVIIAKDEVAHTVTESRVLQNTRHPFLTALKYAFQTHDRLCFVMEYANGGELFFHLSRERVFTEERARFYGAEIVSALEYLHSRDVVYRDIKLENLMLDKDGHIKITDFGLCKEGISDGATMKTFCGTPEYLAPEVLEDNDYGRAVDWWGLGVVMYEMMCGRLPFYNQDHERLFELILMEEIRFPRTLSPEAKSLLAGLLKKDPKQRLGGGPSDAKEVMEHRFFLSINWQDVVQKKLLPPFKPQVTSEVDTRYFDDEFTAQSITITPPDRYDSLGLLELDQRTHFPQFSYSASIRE
UniProt Q9Y243: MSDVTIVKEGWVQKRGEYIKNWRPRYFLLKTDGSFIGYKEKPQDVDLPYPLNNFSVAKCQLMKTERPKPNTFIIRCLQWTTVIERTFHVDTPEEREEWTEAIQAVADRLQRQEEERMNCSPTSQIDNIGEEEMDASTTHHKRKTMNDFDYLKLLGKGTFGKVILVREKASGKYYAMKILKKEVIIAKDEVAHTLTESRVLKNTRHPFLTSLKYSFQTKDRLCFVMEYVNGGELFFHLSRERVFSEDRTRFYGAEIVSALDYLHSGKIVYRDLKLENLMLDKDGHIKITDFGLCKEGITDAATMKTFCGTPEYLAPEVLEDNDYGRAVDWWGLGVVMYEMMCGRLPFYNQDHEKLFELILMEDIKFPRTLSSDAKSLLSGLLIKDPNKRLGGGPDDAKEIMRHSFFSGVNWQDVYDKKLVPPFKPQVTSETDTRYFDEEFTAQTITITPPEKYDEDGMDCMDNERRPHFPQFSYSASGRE

The substances below were run against MEK2 (MEK1-/- mouse embryonic fibroblasts) (mouse (endogenous in MEFs)) (UniProt Q63932) (assay: co-IP; the three AKTs overexpressed in COS7 cells and in MEK1-/- MEFs, resting and stimulated; details in Fig. S1).
With AKT1-GFP (from UniProt P31749 1-480) the binding was “binds”.
For AKT2-GFP (from UniProt P31751 1-481), the binding was “binds”.
With AKT3-GFP (from UniProt Q9Y243 1-479) the binding was “binds”.
